{
  "source": "the supplement of paper PMC8732350",
  "note": "Structures can show the parent of a compound that is named as a salt. ± gives the standard deviation of the averaged measurements. Some of the results follow. Single values are uncertain here, since repeats match poorly.",
  "data": [
    {"system": "A549", "test": "surface PD-L1 immunofluorescence intensity relative to IFN-gamma-only control (ratio); higher = more PD-L1 expression", "conditions": "10 µM; exposure time 24 h; IFN-gamma 100 ng/mL", "values": [
      {"smiles": "CC(C)(Oc1ccc(C2CC2(Cl)Cl)cc1)C(=O)O", "note": "(stereo not drawn) [Ciprofibrate]", "surface PD-L1 immunofluorescence intensity": 1.02},
      {"smiles": "CN(CCOc1ccc(-c2ccc3c(c2)OCO3)cc1C(C)(C)C)CC(=O)O", "surface PD-L1 immunofluorescence intensity": 1.01},
      {"smiles": "N[C@@H](C(=O)O)c1ccc(O)c(C(=O)O)c1", "note": "[(R)-3-Carboxy-4-hydroxyphenylglycine]", "surface PD-L1 immunofluorescence intensity": 1.03},
      {"smiles": "CCn1cc(C(=O)O)c(=O)c2cc(F)c(N3CCNCC3)cc21", "note": "[Norfloxacin]", "surface PD-L1 immunofluorescence intensity": 1.01},
      {"smiles": "c1ccc(N2CCN(CCCOc3ccc4c(c3)OCO4)CC2)cc1", "note": "[BP 554 maleate]", "surface PD-L1 immunofluorescence intensity": 1.08},
      {"smiles": "Cc1cc(Cc2cc(C)cc(C(C)(C)C)c2O)c(O)c(C(C)(C)C)c1", "surface PD-L1 immunofluorescence intensity": 0.909},
      {"smiles": "Cc1nc2c(OCc3ccccc3)cccn2c1CC#N", "surface PD-L1 immunofluorescence intensity": 1.04},
      {"smiles": "CCOC(=O)C1=C(C)NC(C)=C(C(=O)OC)C1c1cccc([N+](=O)[O-])c1", "note": "(stereo not drawn) [Nitrendipine]", "surface PD-L1 immunofluorescence intensity": "1.03 ± 0.042"},
      {"smiles": "CC(CN1c2ccccc2Sc2ccccc21)N(C)C", "note": "(stereo not drawn) [Promethazine hydrochloride]", "surface PD-L1 immunofluorescence intensity": 1.04},
      {"smiles": "CCOc1cc(N2CCC(O)CC2)ccc1Nc1ncc2c(n1)N(C)c1ccccc1C(=O)N2C", "surface PD-L1 immunofluorescence intensity": 0.913},
      {"smiles": "CN(C)[C@@H]1CCc2[nH]c3ccc(NC(=O)c4ccc(F)cc4)cc3c2C1", "surface PD-L1 immunofluorescence intensity": 1.02},
      {"smiles": "COc1cc(C[C@H]2C(=O)OC[C@@H]2Cc2ccc(OC)c(OC)c2)ccc1O", "note": "[Arctigenin]", "surface PD-L1 immunofluorescence intensity": 1.05},
      {"smiles": "NS(=O)(=O)c1cc2c(cc1C(F)(F)F)NC(Cc1ccccc1)NS2(=O)=O", "note": "(stereo not drawn) [Bendroflumethiazide]", "surface PD-L1 immunofluorescence intensity": 0.97},
      {"smiles": "O=C(c1ccc(OCCN2CCCCC2)cc1)c1c(-c2ccc(O)cc2)sc2cc(O)ccc12", "note": "[Raloxifene hydrochloride]", "surface PD-L1 immunofluorescence intensity": 1.09},
      {"smiles": "CNC(=O)c1ccc(N2C(=S)N(c3cnc(C#N)c(C(F)(F)F)c3)C(=O)C23CCC3)cc1F", "surface PD-L1 immunofluorescence intensity": 1.02},
      {"smiles": "COc1cc(N)c(Cl)cc1C(=O)NC1CCN(Cc2ccccc2)CC1", "note": "[Clebopride maleate]", "surface PD-L1 immunofluorescence intensity": 0.912},
      {"smiles": "CNC(=O)CN1CCC(Oc2cc3c(Nc4cccc(Cl)c4F)ncnc3cc2OC)CC1", "surface PD-L1 immunofluorescence intensity": 0.995},
      {"smiles": "CCN1CCCC1CNC(=O)c1cc(S(=O)(=O)CC)c(N)cc1OC", "note": "(stereo not drawn) [Amisulpride]", "surface PD-L1 immunofluorescence intensity": "0.906 ± 0.058"},
      {"smiles": "Nc1nc(N)nc(-c2cc(Cl)ccc2Cl)n1", "note": "[Irsogladine maleate]", "surface PD-L1 immunofluorescence intensity": "0.963 ± 0.059"},
      {"smiles": "CCCS(=O)(=O)Nc1ccc(F)c(C(=O)c2c[nH]c3ncc(Cl)cc23)c1F", "surface PD-L1 immunofluorescence intensity": 1.14},
      {"smiles": "CC1CCc2cc(F)cc3c(=O)c(C(=O)O)cn1c23", "note": "(stereo not drawn) [Flumequine]", "surface PD-L1 immunofluorescence intensity": 0.914},
      {"smiles": "O=C(NCC1CCCCN1)c1cc(OCC(F)(F)F)ccc1OCC(F)(F)F", "note": "(stereo not drawn) [Flecainide acetate]", "surface PD-L1 immunofluorescence intensity": "1.07 ± 0.041"},
      {"smiles": "C[C@@H](O)[C@H]1C(=O)N2C(C(=O)OCOC(=O)C(C)(C)C)=C(SC3CN(C4=NCCS4)C3)[C@H](C)[C@H]12", "note": "[Tebipenem pivoxil (L-084)]", "surface PD-L1 immunofluorescence intensity": 1.02},
      {"smiles": "CCCCOc1ccc(OCCCN2CCOCC2)cc1", "note": "[Pramoxine hydrochloride]", "surface PD-L1 immunofluorescence intensity": 1.02},
      {"smiles": "CC(C)[C@H]1CC[C@H](C(=O)N[C@H](Cc2ccccc2)C(=O)O)CC1", "note": "[Nateglinide (Starlix)]", "surface PD-L1 immunofluorescence intensity": 0.918},
      {"smiles": "COc1c(O)cc2c(c1O)[C@@H]1O[C@H](CO)[C@@H](O)[C@H](O)[C@H]1OC2=O", "note": "[Bergenin (Cuscutin)]", "surface PD-L1 immunofluorescence intensity": 1.06},
      {"smiles": "COc1ccc(-n2nc(C(N)=O)c3c2C(=O)N(c2ccc(N4CCCCC4=O)cc2)CC3)cc1", "note": "[Apixaban]", "surface PD-L1 immunofluorescence intensity": 1.09},
      {"smiles": "COc1ccc(C(C)=O)c(O)c1", "note": "[Paeonol]", "surface PD-L1 immunofluorescence intensity": 0.965},
      {"smiles": "CC(C)c1nc(CN(C)C(=O)N[C@H](C(=O)N[C@@H](Cc2ccccc2)C[C@H](O)[C@H](Cc2ccccc2)NC(=O)OCc2cncs2)C(C)C)cs1", "note": "[Ritonavir]", "surface PD-L1 immunofluorescence intensity": 1.05},
      {"smiles": "COc1cc2c(cc1OC)-c1cc3nc4ccccc4nc3n1C(C)(C)C2", "surface PD-L1 immunofluorescence intensity": 0.974},
      {"smiles": "CCC(CC)[C@H](NC(C)=O)[C@@H]1[C@H](O)[C@@H](C(=O)O)C[C@H]1NC(=N)N", "note": "[Peramivir  Trihydrate]", "surface PD-L1 immunofluorescence intensity": 1.05},
      {"smiles": "COc1ccccc1OCCNCC(O)COc1cccc2[nH]c3ccccc3c12", "note": "(stereo not drawn) [Carvedilol]", "surface PD-L1 immunofluorescence intensity": "0.9786 ± 0.0016"},
      {"smiles": "O=C(O)c1ccccc1Nc1cccc(OCc2ccc3ccccc3n2)c1", "note": "[SR 2640 hydrochloride]", "surface PD-L1 immunofluorescence intensity": 1.01},
      {"smiles": "O=C(O[C@@H]1C[C@@H]2C[C@H]3C[C@H](C1)N2CC3=O)c1c[nH]c2ccccc12", "note": "[Dolasetron mesilate]", "surface PD-L1 immunofluorescence intensity": 1.09},
      {"smiles": "CC(=O)NCCc1c(Cc2ccccc2)[nH]c2ccccc12", "note": "[Luzindole]", "surface PD-L1 immunofluorescence intensity": 1.01},
      {"smiles": "NC1=N[C@@]2(c3cc(NC(=O)c4ccc(F)cn4)ccc3F)COC[C@H]2CS1", "surface PD-L1 immunofluorescence intensity": 1.03},
      {"smiles": "COc1ccc(COc2cc3oc(=O)c4cc(C(C)O)ccc4c3cc2OC)cc1", "note": "(stereo not drawn) [Palomid 529]", "surface PD-L1 immunofluorescence intensity": "0.95106 ± 0.0002"},
      {"smiles": "COC1=C(OC)C(=O)C(C/C=C(\\C)CC/C=C(\\C)CC/C=C(\\C)CC/C=C(\\C)CC/C=C(\\C)CC/C=C(\\C)CC/C=C(\\C)CC/C=C(\\C)CC/C=C(\\C)CCC=C(C)C)=C(C)C1=O", "note": "[Coenzyme Q10 (CoQ10)]", "surface PD-L1 immunofluorescence intensity": 1.03},
      {"smiles": "Cc1c(OCC(F)(F)F)ccnc1C[S+]([O-])c1nc2ccccc2[nH]1", "note": "(stereo not drawn) [Lansoprazole]", "surface PD-L1 immunofluorescence intensity": "1.08 ± 0.12"},
      {"smiles": "CCN1CCN(c2cc(-c3ccc(F)cc3)c3c(n2)CCCCCC3)CC1", "note": "[Blonanserin (Lonasen)]", "surface PD-L1 immunofluorescence intensity": 1.18},
      {"smiles": "C#CCN(C)CC1=Cc2ccccc2Oc2ccccc21", "surface PD-L1 immunofluorescence intensity": 0.991},
      {"smiles": "O=C1CCc2c(ccc3ccccc23)O1", "note": "[Splitomicin]", "surface PD-L1 immunofluorescence intensity": "1.04 ± 0.11"},
      {"smiles": "CC[C@@H]1C(=O)N(C)c2cnc(Nc3ccc(C(=O)NC4CCN(C)CC4)cc3OC)nc2N1C1CCCC1", "surface PD-L1 immunofluorescence intensity": 1.04},
      {"smiles": "Cn1c(=O)c2c(ncn2C)n(C)c1=O", "note": "[Caffeine]", "surface PD-L1 immunofluorescence intensity": "0.993 ± 0.063"},
      {"smiles": "O=C1c2ccccc2C(Cc2ccncc2)(Cc2ccncc2)c2ccccc21", "note": "[XE 991 dihydrochloride]", "surface PD-L1 immunofluorescence intensity": 0.966},
      {"smiles": "CCn1c(=O)n(C2=C(CO)CN(CC3CCCCCCC3)CC2)c2ccccc21", "surface PD-L1 immunofluorescence intensity": 0.989},
      {"smiles": "CC(C)(C)NCC(O)c1ccc(O)c(CO)c1", "note": "(stereo not drawn) [Salbutamol]", "surface PD-L1 immunofluorescence intensity": 0.916},
      {"smiles": "CO[C@H]1C[C@@H]2CC[C@@H](C)[C@@](O)(O2)C(=O)C(=O)N2CCCC[C@H]2C(=O)O[C@H]([C@H](C)C[C@@H]2CC[C@@H](OP(C)(C)=O)[C@H](OC)C2)CC(=O)[C@H](C)/C=C(\\C)[C@@H](O)[C@@H](OC)C(=O)[C@H](C)C[C@H](C)/C=C/C=C/C=C/1C", "note": "[Deforolimus (MK-8669)]", "surface PD-L1 immunofluorescence intensity": 0.927}
    ]}
  ]
}
